From paper PMC7954794, “Protein context shapes the specificity of SH3 domain-mediated interactions in vivo” (Nature Communications, 2021)

Tested on: BBC1
Experiment: DHFR-PCA on solid medium, bait BBC1 (Fig. 1B)
Type: cell-based, Saccharomyces cerevisiae
Parameters: key: 0: SH3-independent; 1: SH3-dependent PPIs; 2: SH3-inhibited PPIs
Settings: bait BBC1, label = prey
From the text: Supplement 41467_2021_21873_MOESM8_ESM.xlsx, sheet "Fig1B" | column: medsize; medrep; Ratio; Score

B1: YIR003W (protein, UniProt P40563 1-679, looked up)
Altered inheritance of …: MPSEVTPKVPERPSRRKTSELFPLSGSESGDIKANSEPPTPAGTPNVPTRRPILKAKTMTSFESGMDQESLPKVPLQRPVRRSTTEELNNVMNNTSKELEEIESLISKHNIHNVSRKKSPTSVEEGKVAAIHQNGQRSASDNKTSTNPSPLEKNEHEGAEGNESAISPSNLVNKSNNEVTEHSDSEDLTEKQKVHAALDNEAGDRSHFEEKLIPGDMKVQVDVSKDVEEGSLNALPPSGITESDDKAEKFTKHPESSLEELQKHQEQQEEKIFQNPTDEESTTSLNEKQEGKDNMEVNSQPQGPSDTETVIAATSSNVPSQIASEEENDVPVIPRSRPKKDFEAHVQKEELPNTQEKRVSEECDSTLISTEEESKIPKIPSERPKRRAPPPVPKKPSSRIAAFQEMLQKQQQQDLHNNGNSSATTASADIAKKHTDSSITSDTTKADFTSKLNGLFALPGMVNPGQLPPSLEKKLSSPDTESKLGPQDQSQAKTGPLGGTRRGRGPRGRKLPSKVASVEKIEEDDNTNKIEIFNNWNVSSSFSKEKVLIDTTPGEQAERALDEKSKSIPEEQREQSPNKMEAALCPFELDEKEKLPANAESDPLSQLPQTNAVGNRKAISEESLSPSEAIANRDQNDTTEIQEQQMEDQMEVDMERELSGGYEDVDSALHSEEASFHSL
With B1 the Score was 0.

B2: YBL007C (protein, UniProt P32790 1-1244, looked up)
Actin cytoskeleton-regulatory …: MTVFLGIYRAVYAYEPQTPEELAIQEDDLLYLLQKSDIDDWWTVKKRVIGSDSEEPVGLVPSTYIEEAPVLKKVRAIYDYEQVQNADEELTFHENDVFDVFDDKDADWLLVKSTVSNEFGFIPGNYVEPENGSTSKQEQAPAAAEAPAATPAAAPASAAVLPTNFLPPPQHNDRARMMQSKEDQAPDEDEEGPPPAMPARPTATTETTDATAAAVRSRTRLSYSDNDNDDEEDDYYYNSNSNNVGNHEYNTEYHSWNVTEIEGRKKKKAKLSIGNNKINFIPQKGTPHEWSIDKLVSYDNEKKHMFLEFVDPYRSLELHTGNTTTCEEIMNIIGEYKGASRDPGLREVEMASKSKKRGIVQYDFMAESQDELTIKSGDKVYILDDKKSKDWWMCQLVDSGKSGLVPAQFIEPVRDKKHTESTASGIIKSIKKNFTKSPSRSRSRSRSKSNANASWKDDELQNDVVGSAAGKRSRKSSLSSHKKNSSATKDFPNPKKSRLWVDRSGTFKVDAEFIGCAKGKIHLHKANGVKIAVAADKLSNEDLAYVEKITGFSLEKFKANDGSSSRGTDSRDSERERRRRLKEQEEKERDRRLKERELYELKKARELLDEERSRLQEKELPPIKPPRPTSTTSVPNTTSVPPAESSNNNNSSNKYDWFEFFLNCGVDVSNCQRYTINFDREQLTEDMMPDINNSMLRTLGLREGDIVRVMKHLDKKFGRENIASIPTNATGNMFSQPDGSLNVATSPETSLPQQLLPQTTSPAQTAPSTSAETDDAWTVKPASKSESNLLSKKSEFTGSMQDLLDLQPLEPKKAAASTPEPNLKDLEPVKTGGTTVPAAPVSSAPVSSAPAPLDPFKTGGNNILPLSTGFVMMPMITGGDMLPMQRTGGFVVPQTTFGMQSQVTGGILPVQKTGNGLIPISNTGGAMMPQTTFGAAATVLPLQKTGGGLIPIATTGGAQFPQTSFNVQGQQQLPTGSILPVQKTANGLISANTGVSMPTVQRTGGTMIPQTSFGVSQQLTGGAMMTQPQNTGSAMMPQTSFNAVPQITGGAMMPQTSFNALPQVTGGAMMPLQRTGGALNTFNTGGAMIPQTSFSSQAQNTGGFRPQSQFGLTLQKTGGIAPLNQNQFTGGAMNTLSTGGVLQQQQPQTMNTFNTGGVMQELQMMTTFNTGGAMQQPQMMNTFNTDGIMQQPQMMNTFNTGGAMQQPQQQALQNQPTGFGFGNGPQQSRQANIFNATASNPFGF
Molecule B2 has a Score of 1.

B3: YBL039C (protein, UniProt P28274 1-579, looked up)
CTP synthase 1: MKYVVVSGGVISGIGKGVLASSTGMLMKTLGLKVTSIKIDPYMNIDAGTMSPLEHGECFVLDDGGETDLDLGNYERYLGVTLTKDHNITTGKIYSHVIAKERKGDYLGKTVQIVPHLTNAIQDWIERVAKIPVDDTGMEPDVCIIELGGTVGDIESAPFVEALRQFQFKVGKENFALIHVSLVPVIHGEQKTKPTQAAIKGLRSLGLVPDMIACRCSETLDKPTIDKIAMFCHVGPEQVVNVHDVNSTYHVPLLLLEQKMIDYLHARLKLDEISLTEEEKQRGLELLSKWKATTGNFDESMETVKIALVGKYTNLKDSYLSVIKALEHSSMKCRRKLDIKWVEATDLEPEAQESNKTKFHEAWNMVSTADGILIPGGFGVRGTEGMVLAARWARENHIPFLGVCLGLQIATIEFTRSVLGRKDSHSAEFYPDIDEKNHVVVFMPEIDKETMGGSMRLGLRPTFFQNETEWSQIKKLYGDVSEVHERHRHRYEINPKMVDELENNGLIFVGKDDTGKRCEILELKNHPYYIATQYHPEYTSKVLDPSKPFLGLVAASAGILQDVIEGKYDLEAGENKFNF
Work on B3 yielded a Score of 1.

B4: YFL010C (protein, UniProt P43582 1-211, looked up)
WW domain-containing protein …: MAQSKSNPPQVPSGWKAVFDDEYQTWYYVDLSTNSSQWEPPRGTTWPRPKGPPPGVNNEKSSRQQADQAPPPYSSQSTPQVQAGAQAQQPRYYQPQQPQYPQYPQQQRYYPQQAPMPAAAPQQAYYGTAPSTSKGSGHGGAMMGGLLGVGAGLLGGAMLEHAFDDHNYDGPDTVVVENNYYGDDAGGSDGGFDDAGGFDGGFDDGFDGSDF
Work on B4 yielded a Score of 1.

B5: YGR229C (protein, UniProt P32566 1-505, looked up)
Cell wall assembly regulator …: MDLFKRKVKEWVYSLSTDDHYAEYNPDETPTFNMGKRLNSNNGQVNPSQMHLNSVDEEMSMGFQNGVPSNEDINIDEFTSTESNDGVSETLLAWRHIDFWTSEHNPDLNATLSDPCTQNDITHAEEDLEVSFPNPVKASFKIHDGQEDLESMTGTSGLFYGFQLMTLDQVVAMTQAWRNVAKNLNKRSQQGLSHVTSTGSSSSMERLNGNKFKLPNIPDQKSIPPNAVQPVYAHPAWIPLITDNAGNHIGVDLAPGPNGKYAQIITFGRDFDTKFVIAENWGEFLLSFANDLEAGNWYLVDDNDDYFSGDGELVFRDKKSNGPIQDYFEVLKRRTWIKYQENLRSQQQKSQPDTSLQEQKYVPASQKKVAAEQPSTLNAESIKGEDSGSADVQSVQDHESVKIVKTEPSEAETTTVNTESLGQAEHEIKADNVDIKQESERKEDEKQPKVEEKEHVENEHVTESAKKDDDVNKQTEEMNKKEENEIRSDDAKVEEAREEFENIAL
For B5, the Score was 1.

B6: YHR114W (protein, UniProt P38822 1-633, looked up)
Protein BZZ1: MSADLSIGNEIKDSFKETHKWVQNNLKWLKDIEQFYRERAKLEKDYSERLSRLSAEYFNKKSSTSVPISVGDTPTTTPGSIEAAGVVAWNEILSQTDMISKDHDQLSTDFENHVANQLSGLFTKLDMTLSKINGFNNDMVNKKDNIYHELEKAKKDYDEACSTMEMARNRYTKASNDRNKKKLDEKEMEMNKCKNEYLIKINQANRTKDKYYFQDVPEVLDLLQDVNEAKTLFLNDLWLKAASVENDLGANVSKRLQAANSVVKQNKPSLNTAIFIKHNLKNWKEPQDFVYKPSPVWHDDEKFAVPSSLEVEDLRIKLAKAENDYNSLQDKTQNELSKLSTLNKIKHEMKTNEDNINATKFYDTLKEYLNVVSPFTSHETLKLQAEVQIESIQNNVPEEYDLSTDNIDLSKTKKKSGIFSKFKHNILNVDSKPSSGGSTGNGNGGPLHITSLFNTSRRTRLGSAPNNAGEDSDNNSIRTTSTNNTKKTTQNSSDDGKNKVLYAYVQKDDDEITITPGDKISLVARDTGSGWTKINNDTTGETGLVPTTYIRISSAATVKANDRGPAPEVPPPRRSTLPVRTMEAIYAYEAQGDDEISIDPGDIITVIRGDDGSGWTYGECDGLKGLFPTSYCK
B6 was tested, and the Score was 1.

B7: YLR196W (protein, UniProt P21304 1-576, looked up)
Periodic tryptophan protein 1: MISATNWVPRGFSSEFPEKYVLDDEEVERINQLAQLNLDDAKATLEEAEGESGVEDDAATGSSNKLKDQLDIDDDLKEYNLEEYDDEEIADNEGGKDVSMFPGLSNDSDVKFHEGEKGEDPYISLPNQEDSQEEKQELQVYPSDNLVLAARTEDDVSYLDIYVYDDGAGFHSSDIPVEEGDEADPDVARGLVRDPALYVHHDLMLPAFPLCVEWLDYKVGSNSEEAANYAAIGTFDPQIEIWNLDCVDKAFPDMILGEPLDNSMVSLKSKKKKKKSKTGHITTHHTDAVLSMAHNKYFRSVLASTSADHTVKLWDLNSGNAARSLASIHSNKNVSSSEWHMLNGSILLTGGYDSRVALTDVRISDESQMSKYWSAMAGEEIETVTFASENIILCGTDSGNVYSFDIRNNENRKPVWTLKAHDAGISTLCSNKFIPGMMSTGAMGEKTVKLWKFPLDDATNTKGPSMVLSRDFDVGNVLTSSFAPDIEVAGTMVIGGVNKVLKLWDVFTNRSVRKSFKSELENVQARAKEEAQKIGKSSRIARKYTSNDNPDTVITIDDQGEDEEEREGGDEHDDMA
Work on B7 yielded a Score of 1.

B8: YNL243W (protein, UniProt P33338 1-968, looked up)
Protein SLA2: MSRIDSDLQKALKKACSVEETAPKRKHVRACIVYTWDHQSSKAVFTTLKTLPLANDEVQLFKMLIVLHKIIQEGHPSALAEAIRDRDWIRSLGRVHSGGSSYSKLIREYVRYLVLKLDFHAHHRGFNNGTFEYEEYVSLVSVSDPDEGYETILDLMSLQDSLDEFSQIIFASIQSERRNTECKISALIPLIAESYGIYKFITSMLRAMHRQLNDAEGDAALQPLKERYELQHARLFEFYADCSSVKYLTTLVTIPKLPVDAPDVFLINDVDESKEIKFKKREPSVTPARTPARTPTPTPPVVAEPAISPRPVSQRTTSTPTGYLQTMPTGATTGMMIPTATGAANAIFPQATAQMQPDFWANQQAQFANEQNRLEQERVQQLQQQQAQQELFQQQLQKAQQDMMNMQLQQQNQHQNDLIALTNQYEKDQALLQQYDQRVQQLESEITTMDSTASKQLANKDEQLTALQDQLDVWERKYESLAKLYSQLRQEHLNLLPRFKKLQLKVNSAQESIQKKEQLEHKLKQKDLQMAELVKDRDRARLELERSINNAEADSAAATAAAETMTQDKMNPILDAILESGINTIQESVYNLDSPLSWSGPLTPPTFLLSLLESTSENATEFATSFNNLIVDGLAHGDQTEVIHCVSDFSTSMATLVTNSKAYAVTTLPQEQSDQILTLVKRCAREAQYFFEDLMSENLNQVGDEEKTDIVINANVDMQEKLQELSLAIEPLLNIQSVKSNKETNPHSELVATADKIVKSSEHLRVDVPKPLLSLALMIIDAVVALVKAAIQCQNEIATTTSIPLNQFYLKNSRWTEGLISAAKAVAGATNVLITTASKLITSEDNENTSPEQFIVASKEVAASTIQLVAASRVKTSIHSKAQDKLEHCSKDVTDACRSLGNHVMGMIEDDHSTSQQQQPLDFTSEHTLKTAEMEQQVEILKLEQSLSNARKRLGEIRRHAYYNQDDD
B8 showed a Score of 1.

B9: YOR042W (protein, UniProt Q08412 1-411, looked up)
Ubiquitin-binding protein CUE5: MEEKEGIKDSSLLEKSNVPESINEDISKTTDVDLNSDGKKDNDTSAKDGTPKVEEKVNKSSGIDEDEVVTPAEDAKEEEEEHPPLPARRKSEEEPSKENPILQELKDAFPNLEEKYIKAVIIASQGVLSPAFNALLFLSDPESGKDIELPTQPVRKNPEAPARRRQTQLEQDELLARQLDEQFNSSHSRRRNRDRATRSMHEQRRRRHNPNEREQHHEDSEEEDSWSQFVEKDLPELTDRAGRSLQDTANKVSNWISDAYRRNFASGNEQNDNQHGHQDQQEWEPEIVDLSQGGKNSRPQQPERRRFNSFGVQVGDDSLESHGITLHNEDGFEDDEDVPPQLPTRTKSGESTGKVVAETTYIDTPDTETKKKWQPLPPEPLDTTPTKVNAVSRNKKNPDEDEFLINSDDEM
B9 was tested, and the Score was 1.

No dose or concentration is given here for some results.
